For test [1], the target named is T1, pYEEI peptide (EPQpYEEIG).
T1 sequence (peptide, phosphotyrosine (pY, fourth residue of the printed letters)): EPQYEEIG
Kind of test: pull-down; lysates of SYF cells expressing FLAG-tagged wild-type or ΔPTB HMTK1 incubated with immobilized pYEEI peptide, phospho-Kemptide or control resin; anti-FLAG Western blotting; only the target purified. On the technique in general: Immunoblotting shows a protein as a band on a membrane.

Test [2] has as its target T1, pYEEI peptide (EPQpYEEIG). Kind of test: pull-down; peptide linked to Affi-Gel 15 resin; purified HMTK1, c-Src or isolated GST-PTB incubated 1 hour at 4°C; washed 4 times with binding buffer (50 mM Tris-HCl pH 7.5, 5 mM EDTA, 100 mM NaCl, 0.1% Triton X-100, 1 mM DTT, 0.5 mM Na3VO4); bound protein seen by Coomassie staining or Western blotting (anti-GST, anti-His6); both purified.

In test [3] the target is T2, PTB ligand-containing substrate (…pYATLG).
T2 sequence (peptide, phosphotyrosine (pY, residue 20 of the printed letters)): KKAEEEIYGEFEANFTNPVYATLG
The test is described as above.

Experimental findings from PMC3082566, “PTB Domain-Directed Substrate Targeting in a Tyrosine Kinase from the Unicellular Choanoflagellate Monosiga brevicollis” (PLoS ONE, 2011) are described below.

These are yes or no findings as the source states them, for the method shown. For some of these results: Binding calls can cover weak binding; strength is not graded here. For some of these results: In cells and extracts the contact can be indirect.

For the substance “FLAG-tagged ΔPTB form of HMTK1 (Monosiga brevicollis) (domain or fragment)”, the binding entry in test [1] is “no binding”.
As for “GST fusion of the isolated third PTB domain of HMTK1 (residues 341-474) (Monosiga brevicollis) (domain or fragment)”, the binding entry in test [2] is recorded as “binds”.
On to “His-tagged HMTK1 PTB-kinase construct (residues 341-761) (Monosiga brevicollis) (enzyme)”, for which the binding result in test [2] and in test [3] was “binds” each time.
